# From the supplement of paper PMC11732987, “Enantioselective OTUD7B fragment discovery through chemoproteomics screening and high-throughput optimisation” (Communications Chemistry, 2025)
# Protein sequences, listed by entry. Tags and fused reporters are not part of them. Lines headed by an entry give the natural chain unless they say otherwise; changes in a name come on top.
# UniProt Q01850: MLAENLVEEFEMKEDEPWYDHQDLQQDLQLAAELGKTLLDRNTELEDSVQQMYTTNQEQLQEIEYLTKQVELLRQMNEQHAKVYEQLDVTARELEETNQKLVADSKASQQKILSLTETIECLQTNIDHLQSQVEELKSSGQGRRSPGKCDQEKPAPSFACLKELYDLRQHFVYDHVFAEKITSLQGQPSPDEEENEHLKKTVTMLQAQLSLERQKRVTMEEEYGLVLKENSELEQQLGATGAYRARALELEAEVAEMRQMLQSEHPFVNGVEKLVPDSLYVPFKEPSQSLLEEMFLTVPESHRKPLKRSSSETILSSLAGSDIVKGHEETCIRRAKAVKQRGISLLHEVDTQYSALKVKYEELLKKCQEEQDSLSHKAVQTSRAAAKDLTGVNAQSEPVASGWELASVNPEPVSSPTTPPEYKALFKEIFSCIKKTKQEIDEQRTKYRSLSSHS
# UniProt P50991: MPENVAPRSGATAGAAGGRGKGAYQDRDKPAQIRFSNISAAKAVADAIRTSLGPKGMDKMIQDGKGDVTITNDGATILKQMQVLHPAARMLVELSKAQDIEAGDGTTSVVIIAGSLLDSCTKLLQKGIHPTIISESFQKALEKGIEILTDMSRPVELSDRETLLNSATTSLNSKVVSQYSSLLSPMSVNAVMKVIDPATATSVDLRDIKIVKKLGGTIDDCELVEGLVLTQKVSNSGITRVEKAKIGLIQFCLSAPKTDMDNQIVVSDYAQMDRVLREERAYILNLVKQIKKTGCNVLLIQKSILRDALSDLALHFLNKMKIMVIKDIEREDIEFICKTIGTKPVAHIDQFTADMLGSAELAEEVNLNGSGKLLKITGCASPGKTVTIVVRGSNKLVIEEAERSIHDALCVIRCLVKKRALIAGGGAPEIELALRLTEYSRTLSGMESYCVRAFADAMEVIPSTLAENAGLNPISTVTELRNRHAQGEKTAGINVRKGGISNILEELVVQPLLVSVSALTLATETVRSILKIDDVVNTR
# UniProt Q13042, whole entry, looked up: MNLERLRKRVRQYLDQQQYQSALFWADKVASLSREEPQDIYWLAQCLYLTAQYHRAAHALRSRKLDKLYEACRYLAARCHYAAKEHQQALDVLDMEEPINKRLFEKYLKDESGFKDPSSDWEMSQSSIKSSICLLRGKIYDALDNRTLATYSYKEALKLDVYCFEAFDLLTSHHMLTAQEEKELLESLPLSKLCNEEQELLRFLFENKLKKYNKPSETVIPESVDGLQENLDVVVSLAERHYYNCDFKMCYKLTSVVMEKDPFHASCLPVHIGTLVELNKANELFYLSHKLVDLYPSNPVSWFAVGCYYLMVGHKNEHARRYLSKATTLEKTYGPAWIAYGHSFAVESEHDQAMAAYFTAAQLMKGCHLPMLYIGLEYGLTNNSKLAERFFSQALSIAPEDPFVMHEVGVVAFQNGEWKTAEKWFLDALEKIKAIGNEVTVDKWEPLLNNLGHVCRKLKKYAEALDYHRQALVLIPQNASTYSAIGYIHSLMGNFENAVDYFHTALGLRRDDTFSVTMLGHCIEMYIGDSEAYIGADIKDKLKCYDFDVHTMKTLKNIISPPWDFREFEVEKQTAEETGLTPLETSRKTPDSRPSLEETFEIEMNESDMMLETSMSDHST
# UniProt Q86X02: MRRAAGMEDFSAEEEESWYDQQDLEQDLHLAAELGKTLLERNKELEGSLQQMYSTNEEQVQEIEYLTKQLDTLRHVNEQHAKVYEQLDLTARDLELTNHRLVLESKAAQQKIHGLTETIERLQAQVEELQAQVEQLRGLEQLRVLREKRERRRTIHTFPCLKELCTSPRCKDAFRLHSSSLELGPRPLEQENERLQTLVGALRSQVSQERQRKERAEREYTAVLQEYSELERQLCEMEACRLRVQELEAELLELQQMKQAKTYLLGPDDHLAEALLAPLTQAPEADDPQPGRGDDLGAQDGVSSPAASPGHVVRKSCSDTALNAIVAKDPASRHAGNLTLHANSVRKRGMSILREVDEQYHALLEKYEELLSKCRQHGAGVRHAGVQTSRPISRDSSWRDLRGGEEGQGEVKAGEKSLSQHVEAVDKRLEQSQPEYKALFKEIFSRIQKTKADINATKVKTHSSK
# UniProt Q8TEP8: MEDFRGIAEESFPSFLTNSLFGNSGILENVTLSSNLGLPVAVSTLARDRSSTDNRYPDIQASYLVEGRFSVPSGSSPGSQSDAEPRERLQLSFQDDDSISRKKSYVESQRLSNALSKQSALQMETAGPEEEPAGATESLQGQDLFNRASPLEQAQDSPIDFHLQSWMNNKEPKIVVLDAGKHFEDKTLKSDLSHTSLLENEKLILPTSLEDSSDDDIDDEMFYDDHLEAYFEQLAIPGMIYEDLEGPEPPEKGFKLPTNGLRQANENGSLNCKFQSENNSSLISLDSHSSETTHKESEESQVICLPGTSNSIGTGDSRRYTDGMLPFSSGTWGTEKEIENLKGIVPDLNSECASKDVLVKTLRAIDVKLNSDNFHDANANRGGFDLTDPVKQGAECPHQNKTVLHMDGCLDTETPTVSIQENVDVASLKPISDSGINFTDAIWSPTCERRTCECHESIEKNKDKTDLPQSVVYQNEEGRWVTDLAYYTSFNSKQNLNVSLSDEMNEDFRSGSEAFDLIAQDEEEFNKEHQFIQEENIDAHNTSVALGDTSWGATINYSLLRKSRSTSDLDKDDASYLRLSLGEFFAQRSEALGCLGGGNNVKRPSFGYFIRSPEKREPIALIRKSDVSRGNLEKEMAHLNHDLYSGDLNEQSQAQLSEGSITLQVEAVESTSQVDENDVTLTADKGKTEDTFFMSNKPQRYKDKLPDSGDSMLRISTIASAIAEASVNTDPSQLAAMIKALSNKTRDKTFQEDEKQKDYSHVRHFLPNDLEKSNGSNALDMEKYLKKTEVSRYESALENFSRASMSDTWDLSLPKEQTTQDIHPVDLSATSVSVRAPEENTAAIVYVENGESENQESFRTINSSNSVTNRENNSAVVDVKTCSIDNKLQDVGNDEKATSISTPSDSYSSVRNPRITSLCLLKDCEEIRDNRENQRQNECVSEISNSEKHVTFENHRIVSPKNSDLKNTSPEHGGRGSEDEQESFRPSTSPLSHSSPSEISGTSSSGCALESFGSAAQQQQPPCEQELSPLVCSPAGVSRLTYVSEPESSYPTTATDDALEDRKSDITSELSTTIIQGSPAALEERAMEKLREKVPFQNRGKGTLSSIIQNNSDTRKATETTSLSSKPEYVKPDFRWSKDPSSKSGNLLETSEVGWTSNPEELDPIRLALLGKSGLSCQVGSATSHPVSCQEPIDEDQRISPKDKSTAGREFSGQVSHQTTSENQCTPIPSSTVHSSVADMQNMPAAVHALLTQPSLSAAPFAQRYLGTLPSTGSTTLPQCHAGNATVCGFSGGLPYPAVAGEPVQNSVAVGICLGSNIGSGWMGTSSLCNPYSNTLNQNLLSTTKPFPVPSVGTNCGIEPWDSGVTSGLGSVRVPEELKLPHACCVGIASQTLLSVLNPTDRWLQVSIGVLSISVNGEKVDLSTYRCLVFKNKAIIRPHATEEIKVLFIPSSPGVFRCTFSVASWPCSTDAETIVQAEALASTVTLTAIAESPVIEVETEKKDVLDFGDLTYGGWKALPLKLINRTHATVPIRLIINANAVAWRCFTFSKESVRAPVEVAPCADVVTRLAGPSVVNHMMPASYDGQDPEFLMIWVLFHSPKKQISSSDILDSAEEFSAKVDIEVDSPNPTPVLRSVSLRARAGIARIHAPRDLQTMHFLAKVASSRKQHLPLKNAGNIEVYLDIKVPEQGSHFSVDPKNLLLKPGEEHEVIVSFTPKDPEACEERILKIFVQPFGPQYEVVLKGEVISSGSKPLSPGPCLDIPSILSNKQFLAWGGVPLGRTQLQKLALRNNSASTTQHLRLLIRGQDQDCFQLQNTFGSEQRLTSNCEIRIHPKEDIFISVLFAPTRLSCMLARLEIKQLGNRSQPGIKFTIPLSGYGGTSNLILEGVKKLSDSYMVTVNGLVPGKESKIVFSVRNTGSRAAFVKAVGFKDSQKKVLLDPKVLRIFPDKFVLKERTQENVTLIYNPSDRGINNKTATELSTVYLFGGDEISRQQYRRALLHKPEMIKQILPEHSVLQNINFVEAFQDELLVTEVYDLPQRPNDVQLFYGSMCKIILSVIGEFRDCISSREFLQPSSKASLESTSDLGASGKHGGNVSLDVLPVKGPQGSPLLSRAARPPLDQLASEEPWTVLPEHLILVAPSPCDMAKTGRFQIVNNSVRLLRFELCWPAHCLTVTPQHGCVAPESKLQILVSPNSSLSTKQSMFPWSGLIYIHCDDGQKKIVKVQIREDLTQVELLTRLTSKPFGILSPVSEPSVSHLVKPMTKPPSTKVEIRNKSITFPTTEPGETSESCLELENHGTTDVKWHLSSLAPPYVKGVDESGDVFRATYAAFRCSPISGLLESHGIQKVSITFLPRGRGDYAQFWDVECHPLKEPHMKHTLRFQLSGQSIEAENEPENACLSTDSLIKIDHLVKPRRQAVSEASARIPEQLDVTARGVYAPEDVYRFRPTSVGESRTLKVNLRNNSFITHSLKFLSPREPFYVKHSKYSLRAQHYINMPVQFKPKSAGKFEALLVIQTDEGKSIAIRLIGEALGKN
# UniProt Q69YH5: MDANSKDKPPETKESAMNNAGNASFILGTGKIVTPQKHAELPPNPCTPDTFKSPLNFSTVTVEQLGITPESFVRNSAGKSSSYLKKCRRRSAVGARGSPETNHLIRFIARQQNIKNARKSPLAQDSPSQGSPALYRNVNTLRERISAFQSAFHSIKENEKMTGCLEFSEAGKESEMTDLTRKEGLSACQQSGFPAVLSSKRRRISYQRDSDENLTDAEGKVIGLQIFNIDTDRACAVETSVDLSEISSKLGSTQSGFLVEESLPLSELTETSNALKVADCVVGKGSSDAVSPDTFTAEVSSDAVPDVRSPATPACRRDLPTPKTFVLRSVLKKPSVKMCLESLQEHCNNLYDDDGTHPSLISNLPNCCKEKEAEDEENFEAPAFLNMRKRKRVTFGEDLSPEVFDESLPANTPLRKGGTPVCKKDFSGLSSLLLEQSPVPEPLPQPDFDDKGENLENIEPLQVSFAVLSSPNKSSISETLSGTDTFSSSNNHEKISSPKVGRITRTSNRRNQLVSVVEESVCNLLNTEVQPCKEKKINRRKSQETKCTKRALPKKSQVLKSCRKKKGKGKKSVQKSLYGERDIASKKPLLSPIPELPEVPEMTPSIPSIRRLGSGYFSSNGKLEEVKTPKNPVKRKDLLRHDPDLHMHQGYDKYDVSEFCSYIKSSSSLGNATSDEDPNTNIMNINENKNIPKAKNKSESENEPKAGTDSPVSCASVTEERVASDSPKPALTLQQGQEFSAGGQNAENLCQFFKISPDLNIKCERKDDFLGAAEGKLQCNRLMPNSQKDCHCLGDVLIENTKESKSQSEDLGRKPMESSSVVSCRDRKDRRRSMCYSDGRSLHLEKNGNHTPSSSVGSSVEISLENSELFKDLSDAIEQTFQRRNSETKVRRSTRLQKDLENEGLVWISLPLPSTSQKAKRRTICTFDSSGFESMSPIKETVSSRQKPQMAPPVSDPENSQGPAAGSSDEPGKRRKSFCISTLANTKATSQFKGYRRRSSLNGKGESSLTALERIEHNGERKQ
# UniProt Q13111, whole entry, looked up: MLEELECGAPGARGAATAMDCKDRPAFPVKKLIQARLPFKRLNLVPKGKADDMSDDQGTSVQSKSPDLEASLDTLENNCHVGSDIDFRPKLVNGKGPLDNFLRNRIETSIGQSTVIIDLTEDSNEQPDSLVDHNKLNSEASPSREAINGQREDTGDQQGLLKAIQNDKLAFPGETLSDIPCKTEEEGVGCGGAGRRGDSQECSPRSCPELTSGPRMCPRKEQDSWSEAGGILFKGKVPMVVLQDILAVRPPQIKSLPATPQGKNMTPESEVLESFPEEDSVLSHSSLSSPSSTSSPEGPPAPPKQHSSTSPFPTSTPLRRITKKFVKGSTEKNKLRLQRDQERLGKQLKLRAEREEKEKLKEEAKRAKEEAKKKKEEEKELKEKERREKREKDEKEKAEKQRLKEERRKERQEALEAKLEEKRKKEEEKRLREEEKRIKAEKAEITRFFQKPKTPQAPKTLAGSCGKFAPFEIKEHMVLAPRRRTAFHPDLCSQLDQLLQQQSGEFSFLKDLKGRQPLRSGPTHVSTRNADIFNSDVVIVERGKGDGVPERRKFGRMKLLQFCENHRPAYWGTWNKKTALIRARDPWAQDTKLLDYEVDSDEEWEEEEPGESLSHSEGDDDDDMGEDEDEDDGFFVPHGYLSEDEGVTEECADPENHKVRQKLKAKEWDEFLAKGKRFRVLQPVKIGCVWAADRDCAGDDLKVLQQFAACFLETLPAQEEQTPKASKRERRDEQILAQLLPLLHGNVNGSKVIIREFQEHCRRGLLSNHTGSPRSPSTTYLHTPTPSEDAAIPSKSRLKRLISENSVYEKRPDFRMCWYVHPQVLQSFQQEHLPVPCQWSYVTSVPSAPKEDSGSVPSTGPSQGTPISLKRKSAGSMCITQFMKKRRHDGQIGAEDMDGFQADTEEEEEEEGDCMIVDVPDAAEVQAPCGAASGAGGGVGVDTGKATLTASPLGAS
# The list shows a part of the results. The data scatter; read single values as rough.
# Legend:
# [1] = compound: ClCC(=O)N[C@@H]1CCCc2ccccc12; assay: log2 mean competition ratio of IA-DTB cysteine labelling (DMSO/compound) (log2 ratio); higher = stronger cysteine engagement by compound; conditions: treatment time: 4 h, cell line lysate: HEK293T
# Procedure: (§1)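 IA-DTB competitive cysteine chemoproteomics in HEK293T RIPA lysate. Lysates were treated with compound 29 or 30 at 50 or 200 µM for 4 h, then IA-DTB (500 µM, 1 h), trypsin-digested, NeutrAvidin-enriched and analysed by diaPASEF. Competition ratio = intensity DMSO / intensity compound (n=4 treated, n=64 DMSO); binding: mean log2 CR ≥ 1 and p ≤ 0.05 plus QC filters. Target is the cysteine site.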
# [2] = compound: ClCC(=O)N[C@H]1CCCc2ccccc12; assay: as above; conditions: treatment time: 4 h, cell line lysate: HEK293T
# Procedure: as §1
Target,log2 mean competition ratio ([1]; 50 µM),log2 mean competition ratio ([1]; 200 µM),log2 mean competition ratio ([2]; 50 µM),log2 mean competition ratio ([2]; 200 µM)
CEP170 C967 (UniProt Q5SW79),-0.0047,-0.261,0.165,-0.245
CEP97 C94 (UniProt Q8IW35),0.18,0.378,-0.122,0.0285
CEP170B C217 (UniProt Q9Y4F5),0.0309,0.0746,-0.191,0.077
CELF1 C119 (UniProt Q92879),-0.178,-0.0515,-0.246,-0.0483
CDYL C515 (UniProt Q9Y232),0.175,-0.0853,-0.099,0.144
CEP152 C653 (UniProt O94986),-0.11,-0.0477,-0.154,-0.157
CHCHD2 C134 (UniProt Q9Y6H1),0.121,0.231,-0.0958,0.268
CCDC88C C1467 (UniProt Q9P219),0.0601,-0.591,0.562,-0.277
CEP295 C874 (UniProt Q9C0D2),0.0692,0.113,-0.0272,-0.0108
CDR2 C432 (UniProt Q01850),0.166,0.015,0.583,-0.0243
CCT2 C289 (UniProt P78371),-0.112,0.099,0.0431,0.0077
CENPE C256 (UniProt Q02224),-0.00876,0.355,0.11,0.163
CDKAL1 C109 (UniProt Q5VV42),0.0543,-0.175,-0.101,0.113
CCT4 C337 (UniProt P50991),-0.35,-0.0261,-0.348,-0.0311
CCDC97 C17 (UniProt Q96F63),0.0649,0.155,0.0301,0.0211
CCNH C244 (UniProt P51946),0.00787,-0.315,-0.434,-0.246
CEP55 C462 (UniProt Q53EZ4),0.0622,0.0577,0.0755,-0.0322
CC2D1A C310 (UniProt Q6P1N0),-0.297,-0.0481,-0.16,-0.144
CENPF C2889 (UniProt P49454),-0.0671,-0.0327,-0.214,-0.0368
CDC16 C245 (UniProt Q13042),0.173,-0.0847,-0.335,-0.252
CCDC85B C116 (UniProt Q15834),0.0893,-0.326,0.249,0.179
CCM2 C170 (UniProt Q9BSQ5),-0.336,0.0462,-0.106,-0.0178
CFL1 C139,0.499,-0.19,0.394,0.124
CENPF C722 (UniProt P49454),-0.00697,-0.192,0.174,-0.101
CCNT1 C111 (UniProt O60563),0.272,-0.286,0.444,-0.331
CENPB C65 (UniProt P07199),0.228,0.168,0.463,0.148

# Whole records, quoted from the list. Order of values: log2 mean competition ratio ([1]; 50 µM) | log2 mean competition ratio ([1]; 200 µM) | log2 mean competition ratio ([2]; 50 µM) | log2 mean competition ratio ([2]; 200 µM)
# CCNT1 C111 (UniProt O60563) is entered as 0.272 | -0.286 | 0.444 | -0.331
# CDC16 C245 (UniProt Q13042) is entered as 0.173 | -0.0847 | -0.335 | -0.252

# (cont.)

Target,log2 mean competition ratio ([1]; 50 µM),log2 mean competition ratio ([1]; 200 µM),log2 mean competition ratio ([2]; 50 µM),log2 mean competition ratio ([2]; 200 µM)
CHD1L C135 (UniProt Q86WJ1),-0.224,-0.251,0.661,0.159
CENPE C2162 (UniProt Q02224),0.0944,-0.11,0.126,-0.101
CCT2 C395 (UniProt P78371),0.0738,-0.175,-0.152,-0.346
CDC34 C191 (UniProt P49427),-0.332,0.0679,-0.11,0.123
CCDC117 C81 (UniProt Q8IWD4),0.0624,0.129,0.168,0.141
CCP110 C535 (UniProt O43303),0.256,0.21,-0.0992,0.221
CDR2L C317 (UniProt Q86X02),0.0524,-0.0915,-0.383,-0.0168
CCDC138 C193 (UniProt Q96M89),0.0278,-0.0104,0.164,0.0535
CDC6 C251 (UniProt Q99741),-0.314,0.0725,-0.0643,-0.108
CDAN1 C1213,-0.219,-0.0216,-0.00881,0.0295
CDC6 C417 (UniProt Q99741),-0.128,0.287,-0.0295,0.183
CERT1 C65,-0.203,-0.0288,-0.037,0.107
CCDC102A C402 (UniProt Q96A19),-0.279,0.226,-0.254,0.412
CEP44 C28 (UniProt Q9C0F1),-0.12,-0.0545,-0.122,-0.00183
CENPF C2052 (UniProt P49454),0.00497,-0.435,0.145,-0.314
CCDC93 C282 (UniProt Q567U6),0.0801,-0.189,-0.0782,0.0123
CEP192 C939 (UniProt Q8TEP8),-0.0499,0.084,0.0774,0.00583
CEP192 C1828 (UniProt Q8TEP8),-0.154,0.104,-0.145,0.127
CDC42 C105,0.259,-0.371,0.202,-0.403
CEP290 C383 (UniProt O15078),0.0378,-0.36,-0.141,-0.169
CCDC47 C283 (UniProt Q96A33),-0.0552,-0.0103,0.308,0.0497
CCDC18 C681 (UniProt Q5T9S5),-0.00293,0.0282,-0.205,0.0347
CEP164 C810 (UniProt Q9UPV0),0.0128,-0.228,-0.395,0.00626
CCSER2 C672 (UniProt Q9H7U1),-0.0667,-0.00203,-0.0392,0.0681
CDC5L C769 (UniProt Q99459),-0.0307,0.251,-0.418,0.092
CCDC8 C256 (UniProt Q9H0W5),-0.0909,-0.0123,-0.0906,-0.0406

Target,log2 mean competition ratio ([1]; 50 µM),log2 mean competition ratio ([1]; 200 µM),log2 mean competition ratio ([2]; 50 µM),log2 mean competition ratio ([2]; 200 µM)
CDC42BPB C784 (UniProt Q9Y5S2),0.0272,-0.199,-0.0503,-0.207
CENPF C1233 (UniProt P49454),-0.102,0.397,-0.679,-0.000433
CFL1 C80,-0.0902,-0.36,-0.355,-0.741
CDK5RAP2 C1528 (UniProt Q96SN8),0.214,0.294,0.185,0.13
CECR2 C1036,-0.067,0.308,0.0474,0.684
CDKN2AIP C178 (UniProt Q9NXV6),-0.0751,-0.231,-0.0422,-0.215
CCT4 C379 (UniProt P50991),-0.0552,-0.128,-0.112,-0.102
CCT2 C535 (UniProt P78371),-0.0082,-0.175,-0.0309,-0.18
CFL1 C39,-0.357,-0.225,-0.295,-0.625
CCDC9 C233,-0.207,-0.194,0.0258,-0.181
CDCA2 C46 (UniProt Q69YH5),-0.106,0.0827,-0.0325,0.0415
CCT7 C450 (UniProt Q99832),-0.376,0.177,0.00876,0.283
CHAF1A C465 (UniProt Q13111),0.077,0.0853,0.18,0.124
CCT4 C221 (UniProt P50991),-0.178,-0.0209,-0.0684,0.00185
CDC42 C157,-0.177,0.197,-0.729,0.158
CDK5RAP2 C249 (UniProt Q96SN8),–,–,0.711,-0.0282
CCDC25 C150 (UniProt Q86WR0),–,–,-0.141,0.331
CHAF1A C207 (UniProt Q13111),–,–,-0.0878,0.295
CDC42BPB C1075 (UniProt Q9Y5S2),-0.306,-0.00592,0.378,-0.108
CCAR1 C465 (UniProt Q8IX12),–,–,-0.212,0.0881
CENPI C332,–,–,-0.212,0.52
CENPF C650 (UniProt P49454),–,–,-0.0114,0.0278
CCDC102A C150 (UniProt Q96A19),–,–,-0.261,0.151
CDK5 C117 (UniProt Q00535),1.02,-0.119,0.218,-0.00093
CENPV C219 (UniProt Q7Z7K6),–,0.182,0.206,0.254
CERT1 C185,–,–,-0.588,-0.055

Target,log2 mean competition ratio ([1]; 50 µM),log2 mean competition ratio ([1]; 200 µM),log2 mean competition ratio ([2]; 50 µM),log2 mean competition ratio ([2]; 200 µM)
CENPE C1644 (UniProt Q02224),–,–,-0.153,0.0347
CDC16 C194 (UniProt Q13042),–,–,-0.665,0.00255
CCT5 C181 (UniProt P48643),–,–,0.19,-0.378
CEP250 C2348 (UniProt Q9BV73),–,–,0.296,-0.196
CFAP97 C27 (UniProt Q9P2B7),–,–,–,0.318
CCDC186 C145 (UniProt Q7Z3E2),–,0.328,0.594,0.229
CCT4 C450 (UniProt P50991),0.173,-0.132,0.342,-0.00209
CCT5 C377 (UniProt P48643),-0.231,-0.191,0.154,-0.059
CEP162 C1014 (UniProt Q5TB80),-0.21,0.145,-0.0659,0.599
CEP192 C352 (UniProt Q8TEP8),–,–,0.163,0.0397
CDK4 C78 (UniProt P11802),–,–,0.0653,-0.0131
CCDC14 C297,-0.196,0.305,-0.0902,0.303
CECR2 C1084,–,–,0.47,0.141
CEP170B C141 (UniProt Q9Y4F5),-0.0947,-0.0449,0.00575,-0.425
CEP55 C443 (UniProt Q53EZ4),0.273,-0.2,0.0107,-0.223
CHAF1A C190 (UniProt Q13111),–,0.258,-0.524,0.209
CCDC144A;CCDC144CP C1116;(C926),–,–,-0.0294,0.14
CDCA2 C835 (UniProt Q69YH5),-0.0295,0.241,-0.0669,0.2
CCT5 C429 (UniProt P48643),–,–,0.16,-0.274
CENPC C472 (UniProt Q03188),-0.0724,-0.288,-0.178,-0.274
CDR2 C367 (UniProt Q01850),–,–,0.0859,0.12
CEP95 C276,-0.159,–,0.334,0.172
CHD1 C411 (UniProt O14646),-0.153,0.0232,0.371,-0.0848
CCT3 C213,–,–,-0.443,0.195
CCT6A C282 (UniProt P40227),–,–,-0.401,-0.119
CCDC88A C1244 (UniProt Q3V6T2),–,–,-0.0763,-0.0911

# A few values from above.
# Entry of CDK4 C78 (UniProt P11802) under log2 mean competition ratio ([2]; 200 µM): -0.0131
# Entry of CCDC186 C145 (UniProt Q7Z3E2) under log2 mean competition ratio ([2]; 50 µM): 0.594
# Entry of CDCA2 C835 (UniProt Q69YH5) under log2 mean competition ratio ([2]; 200 µM): 0.2
# Entry of CDR2 C367 (UniProt Q01850) under log2 mean competition ratio ([2]; 200 µM): 0.12
